Measured values: publication PMC3577899
Results are given in words; binding and its absence hold for the method and conditions named. Some entries that bind do so weakly or less than the wild type.

The chains behind the UniProt entries cited, without tags or fusion partners.
UniProt P08182: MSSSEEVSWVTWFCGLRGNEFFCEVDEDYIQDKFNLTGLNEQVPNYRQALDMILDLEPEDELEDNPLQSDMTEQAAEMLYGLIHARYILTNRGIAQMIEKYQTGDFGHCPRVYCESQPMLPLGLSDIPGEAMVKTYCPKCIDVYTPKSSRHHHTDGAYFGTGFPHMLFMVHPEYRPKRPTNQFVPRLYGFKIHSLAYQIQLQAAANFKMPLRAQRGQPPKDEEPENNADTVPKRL

Biological target: T1, casein kinase II alpha subunit (Drosophila (endogenous in embryos)) (UniProt P08181)
T1 sequence: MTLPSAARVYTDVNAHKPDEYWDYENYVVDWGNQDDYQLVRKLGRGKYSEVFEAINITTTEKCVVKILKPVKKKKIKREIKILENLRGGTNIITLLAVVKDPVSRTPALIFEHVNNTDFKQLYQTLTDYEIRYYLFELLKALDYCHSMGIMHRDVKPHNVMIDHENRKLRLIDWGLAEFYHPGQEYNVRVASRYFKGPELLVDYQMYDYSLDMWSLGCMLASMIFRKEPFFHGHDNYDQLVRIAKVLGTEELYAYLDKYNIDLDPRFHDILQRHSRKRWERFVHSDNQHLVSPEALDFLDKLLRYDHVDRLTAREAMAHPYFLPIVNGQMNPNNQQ
Experiment: SEC; analytical gel filtration of the peak fraction of PSI kinase activity purified from Drosophila embryo nuclear extract; data not shown; both purified

- binding: binds
Substance: casein kinase II beta subunit (from UniProt P08182 1-235)
